Test results: patent publication US20060034860A1
No constants are given. Whether binding was seen depends on the method and setting. Some results given as binding are weak or reduced against the parent protein; the word gives no strength.

Amino acid sequences for entries named in this document (tags omitted). Residues count along the entry.
UniProt Q9Y5L0, residues 61-333: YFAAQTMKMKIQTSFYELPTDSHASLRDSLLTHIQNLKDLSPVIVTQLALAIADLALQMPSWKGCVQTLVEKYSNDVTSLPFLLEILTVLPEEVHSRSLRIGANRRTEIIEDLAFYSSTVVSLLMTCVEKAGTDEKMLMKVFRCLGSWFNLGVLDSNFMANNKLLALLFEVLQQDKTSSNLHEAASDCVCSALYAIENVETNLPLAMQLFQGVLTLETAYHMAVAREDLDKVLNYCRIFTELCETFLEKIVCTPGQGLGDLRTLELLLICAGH
UniProt Q99941, residues 2-703: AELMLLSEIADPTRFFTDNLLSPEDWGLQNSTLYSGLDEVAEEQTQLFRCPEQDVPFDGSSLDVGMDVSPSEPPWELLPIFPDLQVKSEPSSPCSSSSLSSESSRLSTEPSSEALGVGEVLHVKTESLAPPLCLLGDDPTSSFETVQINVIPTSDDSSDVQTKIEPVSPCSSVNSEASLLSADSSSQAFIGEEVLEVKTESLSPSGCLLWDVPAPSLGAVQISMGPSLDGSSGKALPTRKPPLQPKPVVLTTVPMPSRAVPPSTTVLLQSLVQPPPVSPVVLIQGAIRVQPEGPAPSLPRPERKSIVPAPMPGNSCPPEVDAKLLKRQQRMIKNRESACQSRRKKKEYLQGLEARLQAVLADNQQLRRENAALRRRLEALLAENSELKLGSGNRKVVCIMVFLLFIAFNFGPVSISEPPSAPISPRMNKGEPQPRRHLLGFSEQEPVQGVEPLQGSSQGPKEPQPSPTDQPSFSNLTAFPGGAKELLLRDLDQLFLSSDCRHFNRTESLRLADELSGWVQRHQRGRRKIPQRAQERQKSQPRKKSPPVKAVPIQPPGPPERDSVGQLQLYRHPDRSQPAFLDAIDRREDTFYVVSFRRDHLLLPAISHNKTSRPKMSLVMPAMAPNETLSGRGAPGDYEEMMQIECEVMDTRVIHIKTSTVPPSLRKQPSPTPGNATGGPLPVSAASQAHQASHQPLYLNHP
UniProt Q9Y4K1: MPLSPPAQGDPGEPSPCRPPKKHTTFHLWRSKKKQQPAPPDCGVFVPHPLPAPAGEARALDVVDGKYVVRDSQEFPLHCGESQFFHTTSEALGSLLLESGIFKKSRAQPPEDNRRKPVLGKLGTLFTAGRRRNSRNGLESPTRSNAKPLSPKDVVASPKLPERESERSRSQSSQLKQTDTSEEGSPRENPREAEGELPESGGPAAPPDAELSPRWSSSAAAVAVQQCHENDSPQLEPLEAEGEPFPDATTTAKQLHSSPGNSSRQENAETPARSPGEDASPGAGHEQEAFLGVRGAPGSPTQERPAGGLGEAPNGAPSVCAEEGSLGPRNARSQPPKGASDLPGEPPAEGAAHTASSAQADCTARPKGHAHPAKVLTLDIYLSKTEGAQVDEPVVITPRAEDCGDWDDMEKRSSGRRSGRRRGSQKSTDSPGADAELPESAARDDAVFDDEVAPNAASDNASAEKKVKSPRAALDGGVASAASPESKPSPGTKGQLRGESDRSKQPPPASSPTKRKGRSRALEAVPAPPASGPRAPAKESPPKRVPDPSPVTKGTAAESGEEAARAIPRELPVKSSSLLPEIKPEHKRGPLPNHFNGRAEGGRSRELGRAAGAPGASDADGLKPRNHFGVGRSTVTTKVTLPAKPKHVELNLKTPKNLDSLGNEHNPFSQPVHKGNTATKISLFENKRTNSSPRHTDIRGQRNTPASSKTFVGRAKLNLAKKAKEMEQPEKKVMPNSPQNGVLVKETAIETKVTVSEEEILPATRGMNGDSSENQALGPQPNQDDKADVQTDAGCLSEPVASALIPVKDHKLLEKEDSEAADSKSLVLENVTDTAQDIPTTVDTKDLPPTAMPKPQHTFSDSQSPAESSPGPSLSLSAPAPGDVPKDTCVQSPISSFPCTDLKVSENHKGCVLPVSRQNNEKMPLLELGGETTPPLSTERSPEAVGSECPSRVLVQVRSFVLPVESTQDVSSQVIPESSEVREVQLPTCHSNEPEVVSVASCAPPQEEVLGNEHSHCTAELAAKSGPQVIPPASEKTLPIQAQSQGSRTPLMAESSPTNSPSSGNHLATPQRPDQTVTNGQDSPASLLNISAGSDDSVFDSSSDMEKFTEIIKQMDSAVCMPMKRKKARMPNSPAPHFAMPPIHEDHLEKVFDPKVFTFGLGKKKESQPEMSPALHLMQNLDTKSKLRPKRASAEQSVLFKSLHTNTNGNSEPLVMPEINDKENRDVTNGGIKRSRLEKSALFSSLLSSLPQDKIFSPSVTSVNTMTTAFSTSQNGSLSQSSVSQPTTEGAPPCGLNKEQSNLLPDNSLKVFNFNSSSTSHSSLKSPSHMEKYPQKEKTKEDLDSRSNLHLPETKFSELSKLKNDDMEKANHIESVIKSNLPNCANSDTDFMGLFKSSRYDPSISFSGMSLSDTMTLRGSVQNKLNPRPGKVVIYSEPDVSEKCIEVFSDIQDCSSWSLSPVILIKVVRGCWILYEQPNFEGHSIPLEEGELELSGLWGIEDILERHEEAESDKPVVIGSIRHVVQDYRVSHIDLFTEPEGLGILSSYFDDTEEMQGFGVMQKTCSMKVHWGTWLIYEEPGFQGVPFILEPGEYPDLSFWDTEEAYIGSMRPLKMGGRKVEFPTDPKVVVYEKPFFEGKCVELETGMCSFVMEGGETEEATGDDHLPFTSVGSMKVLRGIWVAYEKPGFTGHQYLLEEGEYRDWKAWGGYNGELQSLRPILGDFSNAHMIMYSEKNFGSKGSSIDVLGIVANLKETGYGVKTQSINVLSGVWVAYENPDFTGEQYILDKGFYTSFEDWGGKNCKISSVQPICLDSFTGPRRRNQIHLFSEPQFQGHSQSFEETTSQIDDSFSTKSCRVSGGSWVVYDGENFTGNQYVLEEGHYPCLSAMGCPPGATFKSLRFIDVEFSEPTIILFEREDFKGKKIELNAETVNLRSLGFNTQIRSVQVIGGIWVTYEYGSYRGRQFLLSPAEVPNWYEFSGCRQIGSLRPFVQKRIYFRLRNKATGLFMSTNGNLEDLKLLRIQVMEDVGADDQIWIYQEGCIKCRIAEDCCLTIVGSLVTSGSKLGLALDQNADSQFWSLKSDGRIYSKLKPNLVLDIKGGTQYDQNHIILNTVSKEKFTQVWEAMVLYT

Legend:
[1] = target: HIV-1 IN fragments from the library of HIV genome DNA random fragments (HIV-1 isolate YU2) (UniProt P35963); assay: secondary yeast two-hybrid screen, VBP1 full length bait against the library of HIV genome DNA random fragments
[2] = target: HIV-1 IN fragments from the library of HIV genome DNA random fragments (HIV-1 isolate YU2) (UniProt P35963); assay: secondary yeast two-hybrid screen, Transportin-SR aa61-aa333 bait against the library of HIV genome DNA random fragments
[3] = target: cytoplasmic domain of HIV-1 Env TM Gp41, bait TM_v1 (HIV-1 isolate YU2) (UniProt P35961); assay: yeast two-hybrid screen, cytoplasmic domain of TM Gp41 as bait
[4] = target: HIV-1 protease, bait PR_v1 (HIV-1 isolate YU2) (UniProt P35963); assay: yeast two-hybrid screen, bait PR_v1 (pB27), CEMC7 random primed cDNA prey library; table of bait-prey interactions
[5] = target: HIV-1 protease, bait PR_v1 (HIV-1 isolate YU2) (UniProt P35963); assay: yeast two-hybrid screen, HIV-1 protease bait
[6] = target: HIV-1 protease, bait PR_v1 (HIV-1 isolate YU2) (UniProt P35963); assay: yeast two-hybrid screen, bait PR_v1 (pB27), CEMC7 oligo dT primed cDNA prey library; table of bait-prey interactions
[7] = target: HIV-1 Integrase (IN), bait IN (HIV-1 isolate YU2) (UniProt P35963); assay: yeast two-hybrid screen, bait IN (pB27), CEMC7 oligo dT primed cDNA prey library; table of bait-prey interactions
[8] = target: HIV-1 Integrase (IN), bait IN (HIV-1 isolate YU2) (UniProt P35963); assay: yeast two-hybrid screen, IN bait, random primed and oligo dT cDNA prey libraries

VBP1 full length (bait of the secondary screen) (from UniProt P61758 2-197)
binding [1]: binds

Transportin-SR (fragment aa61-aa333), bait of the secondary screen (from UniProt Q9Y5L0 61-333)
binding [2]: binds

ATF6 beta, prey fragments (from UniProt Q99941 2-703)
binding [3]: binds

Human AIM1 (prey030612), Absent in Melanoma, prey fragments (from UniProt Q9Y4K1 1-2131)
binding [4]: binds
binding [5]: binds
binding [6]: binds

Human MCM7 (prey007151), prey fragments (from UniProt P33993 2-719)
binding [7]: binds
binding [8]: binds
